Record: PubChem BioAssay AID1508597 (Cure First, 2020)
Assay: 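Genes whose silencing sensitises or protects ovarian cancer cells against rucaparib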 (primary screen). Cell system: human ovarian carcinoma lines grown from tumours: OCI-P5x (papillary serous) and OCI-C5x (clear cell). Reagent: siRNA pool against human genes, 1.25 pmol siRNA per well. Timing: 72 h or 96 h, depending on the cell culture. Conditions: rucaparib 20 µM (about IC30) or vehicle, present until read-out. Detection: 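ATP luminescence measured at 72 or 96 h according to the culture, then normalised and expressed as percent viability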. Direction: viability, normalised: higher = more viable cells remaining. Hit rule: 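a well counts as a hit if its normalised viability is under 80 percent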. Calls: active = viability under 80%; inactive = viability 80% or more.
The deposit covers about 2,100 reagents; shown is a random part of them. 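Calls flag viability under 80% in either arm, not effects specific to rucaparib; the reference for percent is not stated.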 Some reagents were tested in more than one well and are listed for each. The record does not give: the 100% reference.

gene knocked down	rucaparib or vehicle	cell line	technical replicate	viability, normalised (%)	outcome
PHKG2	Rucaparib	OCI-C5x (clear cell)	1	45.2	active
PHKG2	Rucaparib	OCI-C5x (clear cell)	2	43.2	active
PHKG2	Rucaparib	OCI-C5x (clear cell)	3	46.3	active
PHKG2	Rucaparib	OCI-P5x (serous)	1	85.6	inactive
PHKG2	Rucaparib	OCI-P5x (serous)	2	81.5	inactive
PHKG2	Rucaparib	OCI-P5x (serous)	3	84.9	inactive
PHKG2	Vehicle	OCI-C5x (clear cell)	1	59.6	active
PHKG2	Vehicle	OCI-C5x (clear cell)	2	56.4	active
PHKG2	Vehicle	OCI-C5x (clear cell)	3	66.6	active
PHKG2	Vehicle	OCI-P5x (serous)	1	56.5	active
PHKG2	Vehicle	OCI-P5x (serous)	2	69	active
PHKG2	Vehicle	OCI-P5x (serous)	3	51.5	active
PMS1	Rucaparib	OCI-C5x (clear cell)	1	49.2	active
PMS1	Rucaparib	OCI-C5x (clear cell)	2	63.8	active
PMS1	Rucaparib	OCI-C5x (clear cell)	3	60.4	active
PMS1	Rucaparib	OCI-P5x (serous)	1	82.2	inactive
PMS1	Rucaparib	OCI-P5x (serous)	2	84.7	inactive
PMS1	Rucaparib	OCI-P5x (serous)	3	67.6	active
PMS1	Vehicle	OCI-C5x (clear cell)	1	63.8	active
PMS1	Vehicle	OCI-C5x (clear cell)	2	50.9	active
PMS1	Vehicle	OCI-C5x (clear cell)	3	54	active
PMS1	Vehicle	OCI-P5x (serous)	1	76.9	active
PMS1	Vehicle	OCI-P5x (serous)	2	78.9	active
PMS1	Vehicle	OCI-P5x (serous)	3	74.9	active
ZSCAN20	Rucaparib	OCI-C5x (clear cell)	1	75.3	active
ZSCAN20	Rucaparib	OCI-C5x (clear cell)	2	71.3	active
ZSCAN20	Rucaparib	OCI-C5x (clear cell)	3	40	active
ZSCAN20	Rucaparib	OCI-P5x (serous)	1	56	active
ZSCAN20	Rucaparib	OCI-P5x (serous)	2	56	active
ZSCAN20	Rucaparib	OCI-P5x (serous)	3	46.6	active
ZSCAN20	Vehicle	OCI-C5x (clear cell)	1	66.1	active
ZSCAN20	Vehicle	OCI-C5x (clear cell)	2	65.2	active
ZSCAN20	Vehicle	OCI-C5x (clear cell)	3	52.8	active
ZSCAN20	Vehicle	OCI-P5x (serous)	1	64	active
ZSCAN20	Vehicle	OCI-P5x (serous)	2	90.4	inactive
ZSCAN20	Vehicle	OCI-P5x (serous)	3	64.2	active
STK40	Rucaparib	OCI-C5x (clear cell)	1	51	active
STK40	Rucaparib	OCI-C5x (clear cell)	2	57.3	active
STK40	Rucaparib	OCI-C5x (clear cell)	3	58.7	active
STK40	Rucaparib	OCI-P5x (serous)	1	129	inactive
STK40	Rucaparib	OCI-P5x (serous)	2	117	inactive
STK40	Rucaparib	OCI-P5x (serous)	3	112	inactive
STK40	Vehicle	OCI-C5x (clear cell)	1	62.8	active
STK40	Vehicle	OCI-C5x (clear cell)	2	50.7	active
STK40	Vehicle	OCI-C5x (clear cell)	3	41.2	active
STK40	Vehicle	OCI-P5x (serous)	1	86.6	inactive
STK40	Vehicle	OCI-P5x (serous)	2	93	inactive
STK40	Vehicle	OCI-P5x (serous)	3	84.2	inactive

Next part, starting with the last 10 of the part before.
gene knocked down	rucaparib or vehicle	cell line	technical replicate	viability, normalised (%)	outcome
STK40	Rucaparib	OCI-C5x (clear cell)	3	58.7	active
STK40	Rucaparib	OCI-P5x (serous)	1	129	inactive
STK40	Rucaparib	OCI-P5x (serous)	2	117	inactive
STK40	Rucaparib	OCI-P5x (serous)	3	112	inactive
STK40	Vehicle	OCI-C5x (clear cell)	1	62.8	active
STK40	Vehicle	OCI-C5x (clear cell)	2	50.7	active
STK40	Vehicle	OCI-C5x (clear cell)	3	41.2	active
STK40	Vehicle	OCI-P5x (serous)	1	86.6	inactive
STK40	Vehicle	OCI-P5x (serous)	2	93	inactive
STK40	Vehicle	OCI-P5x (serous)	3	84.2	inactive
DDX5	Rucaparib	OCI-C5x (clear cell)	1	51.6	active
DDX5	Rucaparib	OCI-C5x (clear cell)	1	74.4	active
DDX5	Rucaparib	OCI-C5x (clear cell)	2	72.1	active
DDX5	Rucaparib	OCI-C5x (clear cell)	2	69.3	active
DDX5	Rucaparib	OCI-C5x (clear cell)	3	54.7	active
DDX5	Rucaparib	OCI-C5x (clear cell)	3	56	active
DDX5	Rucaparib	OCI-P5x (serous)	1	66.8	active
DDX5	Rucaparib	OCI-P5x (serous)	1	71.1	active
DDX5	Rucaparib	OCI-P5x (serous)	2	76.2	active
DDX5	Rucaparib	OCI-P5x (serous)	2	103	inactive
DDX5	Rucaparib	OCI-P5x (serous)	3	85.2	inactive
DDX5	Rucaparib	OCI-P5x (serous)	3	104	inactive
DDX5	Vehicle	OCI-C5x (clear cell)	1	36.6	active
DDX5	Vehicle	OCI-C5x (clear cell)	1	48.1	active
DDX5	Vehicle	OCI-C5x (clear cell)	2	75.4	active
DDX5	Vehicle	OCI-C5x (clear cell)	2	36.4	active
DDX5	Vehicle	OCI-C5x (clear cell)	3	59.5	active
DDX5	Vehicle	OCI-C5x (clear cell)	3	51.2	active
DDX5	Vehicle	OCI-P5x (serous)	1	64.1	active
DDX5	Vehicle	OCI-P5x (serous)	1	73.8	active
DDX5	Vehicle	OCI-P5x (serous)	2	69.2	active
DDX5	Vehicle	OCI-P5x (serous)	2	93.4	inactive
DDX5	Vehicle	OCI-P5x (serous)	3	74.2	active
DDX5	Vehicle	OCI-P5x (serous)	3	71.8	active
POLM	Rucaparib	OCI-C5x (clear cell)	1	48.2	active
POLM	Rucaparib	OCI-C5x (clear cell)	2	55.7	active
POLM	Rucaparib	OCI-C5x (clear cell)	3	64.6	active
POLM	Rucaparib	OCI-P5x (serous)	1	109	inactive
POLM	Rucaparib	OCI-P5x (serous)	2	91.5	inactive
POLM	Rucaparib	OCI-P5x (serous)	3	87.7	inactive
POLM	Vehicle	OCI-C5x (clear cell)	1	47.5	active
POLM	Vehicle	OCI-C5x (clear cell)	2	51.9	active
POLM	Vehicle	OCI-C5x (clear cell)	3	65.8	active
POLM	Vehicle	OCI-P5x (serous)	1	90.2	inactive
POLM	Vehicle	OCI-P5x (serous)	2	88.7	inactive
POLM	Vehicle	OCI-P5x (serous)	3	98.7	inactive
